Results are given in words; binding and its absence hold for the method and conditions named. Some entries that bind do so weakly or less than the wild type. Tags and fused reporters may be left off the sequences shown.
Assays:
Factor H [1] = biological target: Factor H (UniProt P08603); test: ELISA; FH coated (10 µg/ml); NP1 and NP2 2.5–20 µg/ml, PTX3 1.2–10 µg/ml in solution; bound pentraxins detected with anti-His-tag antibody; both purified
Factor H [2] = biological target: Factor H (UniProt P08603); test: ELISA; Factor H coated (10 µg/ml); NP1 and NP2 2.5-20 µg/ml in the fluid phase; detected with an anti-His-tag antibody; RT; both purified
[3] = biological target: C1q isolated from mouse serum (mouse) (UniProt P98086+P14106+Q02105); test: ELISA; C1q coated to the plate; NP1, NP2 and PTX3 applied in the fluid phase (opposite arrangement to Figure 1a); representative measurements; both purified

Protein sequences, listed by entry. Tags and fused reporters are not part of them. Lines headed by an entry give the natural chain unless they say otherwise; changes in a name come on top. Residues count along the entry.
UniProt P08603, residues 19-1231: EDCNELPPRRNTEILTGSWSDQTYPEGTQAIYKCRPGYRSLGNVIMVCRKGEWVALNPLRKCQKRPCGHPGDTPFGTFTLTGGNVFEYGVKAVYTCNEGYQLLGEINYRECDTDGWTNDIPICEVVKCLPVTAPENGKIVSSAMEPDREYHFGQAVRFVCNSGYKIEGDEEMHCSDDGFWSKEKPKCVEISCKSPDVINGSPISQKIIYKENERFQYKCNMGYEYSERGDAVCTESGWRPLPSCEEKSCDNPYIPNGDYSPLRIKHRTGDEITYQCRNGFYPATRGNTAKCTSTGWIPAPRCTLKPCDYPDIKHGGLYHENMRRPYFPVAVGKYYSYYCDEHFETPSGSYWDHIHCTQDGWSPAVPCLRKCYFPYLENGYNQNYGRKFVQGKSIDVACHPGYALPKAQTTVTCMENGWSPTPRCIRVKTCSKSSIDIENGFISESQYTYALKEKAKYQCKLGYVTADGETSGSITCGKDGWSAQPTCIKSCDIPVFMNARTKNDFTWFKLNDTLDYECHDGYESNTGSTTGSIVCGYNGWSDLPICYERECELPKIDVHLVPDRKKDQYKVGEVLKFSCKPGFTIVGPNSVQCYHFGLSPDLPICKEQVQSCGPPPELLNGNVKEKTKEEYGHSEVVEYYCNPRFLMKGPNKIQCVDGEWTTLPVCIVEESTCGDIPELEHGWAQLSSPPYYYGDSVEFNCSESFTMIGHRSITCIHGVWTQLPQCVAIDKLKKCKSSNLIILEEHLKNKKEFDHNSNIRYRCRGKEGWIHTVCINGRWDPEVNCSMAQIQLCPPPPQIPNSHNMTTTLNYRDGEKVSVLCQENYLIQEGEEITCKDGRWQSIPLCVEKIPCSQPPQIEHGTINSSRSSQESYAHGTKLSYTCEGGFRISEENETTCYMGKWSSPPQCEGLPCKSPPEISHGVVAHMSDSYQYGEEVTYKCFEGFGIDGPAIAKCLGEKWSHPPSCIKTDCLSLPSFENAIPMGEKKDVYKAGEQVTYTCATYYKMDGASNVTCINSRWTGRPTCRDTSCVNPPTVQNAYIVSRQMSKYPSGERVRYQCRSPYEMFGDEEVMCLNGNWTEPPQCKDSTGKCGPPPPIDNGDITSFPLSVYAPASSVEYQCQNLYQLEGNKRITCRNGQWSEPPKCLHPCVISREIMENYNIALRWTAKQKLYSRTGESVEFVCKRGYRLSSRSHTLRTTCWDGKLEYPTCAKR
UniProt P98086: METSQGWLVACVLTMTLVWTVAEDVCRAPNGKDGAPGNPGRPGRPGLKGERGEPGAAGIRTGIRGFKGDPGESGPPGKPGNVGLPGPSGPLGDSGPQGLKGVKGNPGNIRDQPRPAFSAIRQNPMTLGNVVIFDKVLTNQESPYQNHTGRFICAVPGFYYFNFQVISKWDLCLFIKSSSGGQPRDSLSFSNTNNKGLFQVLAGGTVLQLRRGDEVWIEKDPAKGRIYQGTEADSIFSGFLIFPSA
UniProt P14106: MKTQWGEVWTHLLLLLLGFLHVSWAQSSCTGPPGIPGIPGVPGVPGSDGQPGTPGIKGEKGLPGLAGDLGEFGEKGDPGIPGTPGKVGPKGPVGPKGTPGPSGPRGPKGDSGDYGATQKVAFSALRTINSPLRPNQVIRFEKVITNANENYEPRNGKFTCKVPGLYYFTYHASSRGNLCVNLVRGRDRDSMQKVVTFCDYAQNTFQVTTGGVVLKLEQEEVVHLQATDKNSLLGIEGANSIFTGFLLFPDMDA
UniProt Q02105: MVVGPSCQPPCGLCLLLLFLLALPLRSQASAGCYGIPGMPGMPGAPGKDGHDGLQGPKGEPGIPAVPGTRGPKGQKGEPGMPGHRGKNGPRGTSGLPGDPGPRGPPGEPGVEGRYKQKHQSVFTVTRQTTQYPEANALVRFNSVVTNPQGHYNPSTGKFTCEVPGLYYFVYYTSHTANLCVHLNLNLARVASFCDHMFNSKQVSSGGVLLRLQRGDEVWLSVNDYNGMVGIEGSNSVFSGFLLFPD

binding (Factor H [1])	binding (Factor H [2])	binding [3]	Binder
binds	binds	binds	Recombinant human His-tagged neuronal pentraxin 2 (protein, UniProt P47972 16-431) GAQDSPAPGSRFVCTALPPEAVHAGCPLPAMPMQGGAQSPEEELRAAVLQLRETVVQQKETLGAQREAIRELTGKLARCEGLAGGKARGAGATGKDTMGDLPRDPGHVVEQLSRSLQTLKDRLESLEHQLRANVSNAGLPGDFREVLQQRLGELERQLLRKVAELEDEKSLLHNETSAHRQKTESTLNALLQRVTELERGNSAFKSPDAFKVSLPLRTNYLYGKIKKTLPELYAFTICLWLRSSASPGIGTPFSYAVPGQANEIVLIEWGNNPIELLINDKVAQLPLFVSDGKWHHICVTWTTRDGMWEAFQDGEKLGTGENLAPWHPIKPGGVLILGQEQDTVGGRFDATQAFVGELSQFNIWDRVLRAQEIVNIANCSTNMPGNIIPWVDNNVDVFGGASKWPVETCEERLLDL
binds	binds	binds	Recombinant human His-tagged neuronal pentraxin 1 (protein, UniProt Q15818 23-432) QDFGPTRFICTSVPVDADMCAASVAAGGAEELRSSVLQLRETVLQQKETILSQKETIRELTAKLGRCESQSTLDPGAGEARAGGGRKQPGSGKNTMGDLSRTPAAETLSQLGQTLQSLKTRLENLEQYSRLNSSSQTNSLKDLLQSKIDELERQVLSRVNTLEEGKGGPRNDTEERVKIETALTSLHQRISELEKGQKDNRPGDKFQLTFPLRTNYMYAKVKKSLPEMYAFTVCMWLKSSATPGVGTPFSYAVPGQANELVLIEWGNNPMEILINDKVAKLPFVINDGKWHHICVTWTTRDGVWEAYQDGTQGGSGENLAPYHPIKPQGVLVLGQEQDTLGGGFDATQAFVGELAHFNIWDRKLTPGEVYNLATCSTKALSGNVIAWAESHIEIYGGATKWTFEACRQIN
